Results: paper PMC12338864, “Modifications in FLAP's second cytosolic loop influence 5‐LOX interaction, inhibitor binding, and leukotriene formation” (Febs Letters, 2025)
Where a chain is given by its changes, count along the chain named. Results are given in words; binding and its absence hold for the method and conditions named. In cells and extracts the contact can be indirect. Some entries that bind do so weakly or less than the wild type.

Key:
[1] = biological target: T1, 5-LOX-activating protein, wild type (human) (UniProt P20292); experiment: proximity ligation; Duolink PLA in situ in unstimulated HEK293 cells expressing wildtype 5-LOX and FLAP (no A23187)
T1 sequence: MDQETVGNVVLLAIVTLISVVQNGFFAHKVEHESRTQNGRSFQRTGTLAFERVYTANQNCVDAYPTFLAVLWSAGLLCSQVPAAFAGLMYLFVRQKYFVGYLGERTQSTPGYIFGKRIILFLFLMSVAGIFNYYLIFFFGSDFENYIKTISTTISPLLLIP

FLAP(Y112A) (human) [2] = biological target: T2, FLAP(Y112A) (human) (UniProt P20292); experiment: proximity ligation; Duolink PLA in situ in HEK293 cells co-expressing 5-LOX and FLAP mutants; 2.5 μM A23187 at 37 °C, the 10 min time point only
T2 sequence: T1 sequence with Y112A

FLAP(I119A) (human) [3] = biological target: T3, FLAP(I119A) (human) (UniProt P20292); experiment: as above
T3 sequence: T1 sequence with I119A

FLAP(Y112A) (human) [4] = biological target: T2, FLAP(Y112A) (human); experiment: proximity ligation; Duolink PLA in situ in fixed, permeabilised HEK293 cells stably co-expressing 5-LOX and FLAP (wildtype or mutants); stimulated with 2.5 μM A23187 at 37 °C for 10 or 30 min; mouse anti-5-LOX and rabbit anti-FLAP; distance less than 40 nm
[5] = biological target: T1, 5-LOX-activating protein, wild type (human); experiment: as above
FLAP(S108A) (human) = biological target: T4, FLAP(S108A) (human) (UniProt P20292); experiment: as above
T4 sequence: T1 sequence with S108A

FLAP(S108D) = biological target: T5, FLAP(S108D) (human, UniProt P20292 1-161, S108D); experiment: as above
T5 sequence (looked up): T1 sequence with S108D

FLAP(T45C) (human) = biological target: T6, FLAP(T45C) (human) (UniProt P20292); experiment: as above
T6 sequence: T1 sequence with T45C

FLAP(S41A) (human) = biological target: T7, FLAP(S41A) (human) (UniProt P20292); experiment: as above
T7 sequence: T1 sequence with S41A

FLAP(I119A) (human) [6] = biological target: T3, FLAP(I119A) (human); experiment: as above
FLAP(S41D) = biological target: T8, FLAP(S41D) (human, UniProt P20292 1-161, S41D); experiment: as above
T8 sequence (looked up): T1 sequence with S41D

FLAP(A27L) (human) = biological target: T9, FLAP(A27L) (human) (UniProt P20292); experiment: as above
T9 sequence: T1 sequence with A27L

FLAP(T66A) (human) = biological target: T10, FLAP(T66A) (human) (UniProt P20292); experiment: as above
T10 sequence: T1 sequence with T66A

FLAP(T109C) = biological target: T11, FLAP(T109C) (human, UniProt P20292 1-161, T109C); experiment: as above
T11 sequence (looked up): T1 sequence with T109C

binding (FLAP(Y112A) (human) [4]): binds
binding [5]: binds
binding (FLAP(S108A) (human)): binds
binding (FLAP(S108D)): no binding
binding (FLAP(T45C) (human)): binds
binding (FLAP(S41A) (human)): binds
binding (FLAP(I119A) (human) [6]): binds
binding (FLAP(S41D)): binds
binding (FLAP(A27L) (human)): binds
binding (FLAP(T66A) (human)): binds
binding (FLAP(T109C)): binds
B1: 5-lipoxygenase (enzyme, human, UniProt P09917 1-674, looked up)
chain: MPSYTVTVATGSQWFAGTDDYIYLSLVGSAGCSEKHLLDKPFYNDFERGAVDSYDVTVDEELGEIQLVRIEKRKYWLNDDWYLKYITLKTPHGDYIEFPCYRWITGDVEVVLRDGRAKLARDDQIHILKQHRRKELETRQKQYRWMEWNPGFPLSIDAKCHKDLPRDIQFDSEKGVDFVLNYSKAMENLFINRFMHMFQSSWNDFADFEKIFVKISNTISERVMNHWQEDLMFGYQFLNGCNPVLIRRCTELPEKLPVTTEMVECSLERQLSLEQEVQQGNIFIVDFELLDGIDANKTDPCTLQFLAAPICLLYKNLANKIVPIAIQLNQIPGDENPIFLPSDAKYDWLLAKIWVRSSDFHVHQTITHLLRTHLVSEVFGIAMYRQLPAVHPIFKLLVAHVRFTIAINTKAREQLICECGLFDKANATGGGGHVQMVQRAMKDLTYASLCFPEAIKARGMESKEDIPYYFYRDDGLLVWEAIRTFTAEVVDIYYEGDQVVEEDPELQDFVNDVYVYGMRGRKSSGFPKSVKSREQLSEYLTVVIFTASAQHAAVNFGQYDWCSWIPNAPPTMRAPPPTAKGVVTIEQIVDTLPDRGRSCWHLGAVWALSQFQENELFLGMYPEEHFIEKPVKEAMARFRKNLEAIVSVIAERNKKKQLPYYYLSPDRIPNSVAI
binding [1]: no binding (condition: unstimulated cells (no A23187))
binding (FLAP(Y112A) (human) [2]): no binding (condition: 10 min of stimulation)
binding (FLAP(I119A) (human) [3]): no binding (condition: 10 min of stimulation)
